Our source for the binding values is publication PMC3033906.

Protein sequences, listed by entry. Tags and fused reporters are not part of them.
UniProt Q8C863: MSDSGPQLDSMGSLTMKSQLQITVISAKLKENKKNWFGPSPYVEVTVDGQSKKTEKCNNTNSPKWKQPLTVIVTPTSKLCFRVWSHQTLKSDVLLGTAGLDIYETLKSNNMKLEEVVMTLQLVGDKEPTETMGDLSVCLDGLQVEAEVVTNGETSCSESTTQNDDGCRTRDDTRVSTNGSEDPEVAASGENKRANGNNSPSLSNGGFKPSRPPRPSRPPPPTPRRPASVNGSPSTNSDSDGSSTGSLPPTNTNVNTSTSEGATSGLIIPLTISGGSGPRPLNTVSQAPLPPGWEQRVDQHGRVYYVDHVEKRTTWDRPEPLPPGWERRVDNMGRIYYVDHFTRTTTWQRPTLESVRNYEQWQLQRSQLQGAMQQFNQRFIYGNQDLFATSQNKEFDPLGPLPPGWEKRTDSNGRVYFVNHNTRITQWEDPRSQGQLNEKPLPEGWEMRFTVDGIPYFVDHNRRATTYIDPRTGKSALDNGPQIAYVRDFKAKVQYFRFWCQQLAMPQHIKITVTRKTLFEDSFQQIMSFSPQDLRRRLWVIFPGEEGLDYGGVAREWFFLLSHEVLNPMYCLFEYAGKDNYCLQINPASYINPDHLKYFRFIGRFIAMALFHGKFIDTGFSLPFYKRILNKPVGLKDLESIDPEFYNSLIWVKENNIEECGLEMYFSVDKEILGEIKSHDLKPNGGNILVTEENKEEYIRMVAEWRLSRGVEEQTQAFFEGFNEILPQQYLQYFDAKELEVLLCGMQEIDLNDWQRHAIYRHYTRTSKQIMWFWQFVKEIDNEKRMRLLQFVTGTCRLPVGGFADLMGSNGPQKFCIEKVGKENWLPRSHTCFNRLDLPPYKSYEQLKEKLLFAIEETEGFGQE
UniProt Q9JLJ0: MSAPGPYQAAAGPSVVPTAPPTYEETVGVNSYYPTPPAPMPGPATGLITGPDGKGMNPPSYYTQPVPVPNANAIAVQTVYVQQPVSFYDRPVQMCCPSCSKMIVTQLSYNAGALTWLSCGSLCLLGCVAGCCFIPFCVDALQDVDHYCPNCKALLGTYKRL

No constants are given. Whether binding was seen depends on the method and setting. Binding seen in cells or lysates may run through a third protein. Some binding calls cover weakened binding; strength is not graded here.

One assay addresses GST-Itch WT (UniProt Q8C863). The experiment in a line: pull-down; 20 µg GST-fusion protein on glutathione Sepharose 4B incubated with extracts of transfected HEK-293T cells, 16 hours at 4°C, 20 mM Hepes pH 7.4, 150 mM NaCl, 1% Triton X-100; blot with anti-myc or anti-GFP; densitometry of four experiments for GST-Itch-WW; only the target purified.
The target in the next assay is FLAG-Itch (WT) (UniProt Q8C863). The experiment in a line: co-IP; HEK-293T co-transfected; extract in 20 mM Hepes pH 7.4, 150 mM NaCl, 1% Triton X-100; anti-FLAG with protein A-Sepharose, 16 hours at 4°C; blot with anti-myc.
Another assay has as its target rLuc-Itch (UniProt Q8C863). The assay can be described thus: FRET or BRET; BRET in living HEK-293T cells co-transfected with a constant amount of rLuc-Itch and various amounts of GFP fusion; coelenterazine 5 µM; saturation curves. (In general: Bioluminescence resonance energy transfer reports proximity on the nanometre scale.)
The next assay concerns the target GFP-Itch (UniProt Q8C863). The assay can be described thus: FRET or BRET; BRET with rLuc-LITAF and GFP-Itch; data not shown.

Turning to “myc-LITAF (wild-type) (from UniProt Q9JLJ0 1-161)”, the binding entry in the assay with GST-Itch WT and in the assay with FLAG-Itch (WT) was “binds” each time. On to “GFP-LITAF WT (from UniProt Q9JLJ0 1-161)”, for which, in the assay with rLuc-Itch, the binding result is “binds”. Regarding rLuc-LITAF (from UniProt Q9JLJ0 1-161), the binding entry in the assay with GFP-Itch is given as “binds”.
